# Reference: PubChem BioAssay AID1662 (Broad Institute, 2009)
# In all, about 300,000 compounds went through this assay and about 4,000 (1.3%) were called active. The shares of active, inactive and inconclusive entries below differ from those in the screen.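 Rule for the calls: active = mean replicate score, as percent of positive control median, at least 50; inconclusive = mean below 50 but one replicate at or above 50; inactive = mean and every replicate below 50.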
# Assay: kanamycin survival loss of SKKanGAS strain – BacTiter-Glo luminescence, streptokinase expression inhibitor project, primary screen (AID 1662);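 note: strain carries kanamycin resistance gene driven by streptokinase promoter and grows in 40 µg/ml kanamycin; loss of luminescence reflects streptokinase promoter inhibition or plain growth inhibition; 0% = median of DMSO wells and 100% = positive control at its reference dose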
# Details: S. pyogenes SKKanGAS, kanamycin growth, 6 h, at 7.5 µM, active compounds read high
row,Structure (SMILES),inhibition
1,Cc1ccc(N=Cc2c(C)[nH]n(-c3nc4ccccc4[nH]3)c2=O)cc1,active: 66%
2,N=c1c2c(n(Cc3ccccc3)c3c1CCC3)CCC2,inactive: 3.73%
3,COc1ccc(OCC(=O)NC(=S)N2CCCc3ccccc32)cc1,inactive: 1.64%
4,O=C(c1cc2ccccc2cc1O)N1CCN(c2ccccc2O)CC1,inconclusive: 42%
5,Cc1ccc(N(C)S(=O)(=O)c2cccc(C(=O)Nc3nc4ccccc4[nH]3)c2)cc1,inconclusive: 48.7%
6,Clc1ccc(CCNc2nc3ccccc3s2)cc1,inconclusive: 18.5%
7,COc1ccc(C)cc1NC(=O)C(=O)NNC(=O)COc1ccc(Cl)cc1,inconclusive: 45.7%
8,CCc1ccc(CN(C)C(=O)CCc2nnc(-c3ccc(-c4ccccc4)cc3)o2)nc1,inconclusive: 45.9%
9,CCOC(=O)Cc1csc(NC(=O)c2ccc(Cl)nc2)n1,inactive: 28.5%
10,COc1cccc(COC(=O)c2ccc3c(=O)n4c(nc3c2)CCC4)c1OC,inconclusive: 48.4%
11,CC(CNC(=S)Nc1cc(F)cc(F)c1)CSc1ccc(Cl)cc1 (stereo not given),active: 54.6%
12,O=C(NC(=S)NC1C2CC3CC(C2)CC1C3)c1ccccc1 (stereo not given),inconclusive: 27.2%
13,Nc1c(C(=O)O)sc2nc(-c3ccccc3)cc(-c3ccc(Cl)cc3)c12,inconclusive: 42.9%
14,O=C1NC2=C(C(=O)CCC2)C(c2cccc([N+](=O)[O-])c2)N1 (stereo not given),inactive: 2.57%
15,COc1cccc(OCC(=O)NNC(=O)C(=O)Nc2ccc(OC)cc2OC)c1,inconclusive: 46.8%
16,Cc1ccc(/C=N\NC(=O)/C(=C\Nc2nccc(C)n2)NC(=O)c2ccccc2)cc1,inactive: -2.62%
17,O=C1CC(SCc2nc3ccccc3[nH]2)C(=O)N1c1ccc(F)cc1 (stereo not given),inactive: 16%
18,COc1ccc(OC2CCN(S(=O)(=O)c3cccc(F)c3)CC2)cc1,inactive: -1.44%
19,Clc1ccc(N2COC3c4cccc5cccc(c45)C32)cc1 (stereo not given),inconclusive: 48.2%
20,CCOc1ccc2nc(NC(=O)C3CCCN(S(=O)(=O)c4cccc5nonc45)C3)sc2c1 (stereo not given),inconclusive: 47.6%
21,COc1ccc(C2CC2/C(C)=N/OC(=O)c2cccs2)cc1 (stereo not given),inactive: -6.6%
22,CCCCCCS(=O)[C@H]1CS(=O)(=O)C[C@@H]1S(=O)CCCCCC (stereo not given in full),inactive: 9.32%
23,Cc1ccccc1NC(=S)NC(C)CCc1ccccc1 (stereo not given),inactive: 0.28%

row,Structure (SMILES),inhibition
1,C/C(=N/NC(=O)CNC(=O)c1cccnc1)c1cccc([N+](=O)[O-])c1,inconclusive: 38.4%
2,CCOC(=O)/C(=N\Nc1ccccc1Cl)N1CCN(c2ccccc2OC)CC1,inconclusive: 38.3%
3,COc1cc(/C=N/NC(=O)c2nnn(-c3nonc3N)c2C(C)C)ccc1OCc1ccc(F)cc1,active: 58%
4,Cc1n[nH]c(C)c1CCCOc1ccccc1,inconclusive: 33.3%
5,O=C(NC(=S)N1CCN(Cc2ccc3c(c2)OCO3)CC1)c1cccc(Br)c1,inconclusive: 47.9%
6,Cc1ccc(C)c(C(=O)COC(=O)c2cc([N+](=O)[O-])ccc2N2CCOCC2)c1,inactive: 1.41%
7,CN1C(=O)/C(=C/c2cccc(Cl)c2)Sc2ccc(C(=O)N3CCOCC3)cc21,inconclusive: 41.9%
8,CCCC(=O)OCCNc1cc(SCCC(=O)OC)c2nonc2c1[N+](=O)[O-],inactive: 2.51%
9,O=C(O)CCCN1C(=O)/C(=C/C=C/c2ccco2)SC1=S,inactive: -5.66%
10,Cn1c(=O)c(C(=O)COC(=O)c2cc(-c3ccco3)nc3ccccc23)c(N)n(Cc2ccccc2)c1=O,inactive: 38.9%
11,COc1ccc(-c2csc(NC(=S)NC(=O)c3cccs3)n2)cc1OC,inconclusive: 46.5%
12,COc1cccc(Nc2cc(N3CCOCC3)c3nonc3c2[N+](=O)[O-])c1,inactive: -1.53%
13,CCCN(CCC)CCCNC(=S)Nc1ccc2nc3n(c(=O)c2c1)CCCCC3,inactive: 4.23%
14,O=C(/C=C/c1ccccc1)N1CCN(CCN2C(=O)c3cccc4cccc(c34)C2=O)CC1,inconclusive: 44%
15,CCCCc1ccc(NC(=S)NCCc2ccc(F)cc2)cc1,inconclusive: 42.2%
16,Cc1cc(NC(=O)c2cnccn2)no1,inconclusive: 46.8%
17,Cc1ccc(C)c(CSC2=NCCN2S(=O)(=O)c2ccccc2)c1,inconclusive: 47.7%
18,O=C(C1CCC(Cn2c(=S)[nH]c3ccccc3c2=O)CC1)N1CCN(c2ccccc2)CC1 (stereo not given),inconclusive: 44.8%
19,COc1cc(C(=O)NNC(=S)NC(=O)c2ccc(Cl)cc2)cc(OC)c1OC,active: 92.6%
20,CCc1ccc(-c2cc(C(=O)N/N=C/c3c[nH]c4ccccc34)[nH]n2)cc1,inconclusive: 48.1%
21,COc1ccc(S(=O)(=O)n2cccc2)cc1,inactive: -2.43%
22,Cc1ccc(-c2nnc(N3CC(C)OC(C)C3)c3ccccc23)cc1 (stereo not given),inactive: 4.9%
23,COc1ccc(C(=O)/C=C/Nc2ccc([N+](=O)[O-])cc2C)c(OC)c1,inactive: -6.63%

# Of the compounds above, these contain a COOH group.
row,Structure (SMILES),inhibition
13,Nc1c(C(=O)O)sc2nc(-c3ccccc3)cc(-c3ccc(Cl)cc3)c12,inconclusive: 42.9%
9,O=C(O)CCCN1C(=O)/C(=C/C=C/c2ccco2)SC1=S,inactive: -5.66%

# Three entries from above, sorted by molar mass, ascending:
row,Structure (SMILES),inhibition
4,Cc1n[nH]c(C)c1CCCOc1ccccc1,inconclusive: 33.3%
1,Cc1ccc(N=Cc2c(C)[nH]n(-c3nc4ccccc4[nH]3)c2=O)cc1,active: 66%
20,CCc1ccc(-c2cc(C(=O)N/N=C/c3c[nH]c4ccccc34)[nH]n2)cc1,inconclusive: 48.1%

# Next part

row,Structure (SMILES),inhibition
1,CC(C)N1CCc2c(sc(NC(=O)CCS(=O)(=O)c3ccccc3)c2C#N)C1,inconclusive: 46.8%
2,CC(C)C(NS(=O)(=O)c1cccc2nsnc12)C(=O)Nc1nc2ccc(Cl)cc2s1 (stereo not given),inactive: -0.164%
3,COc1ccccc1CNC(=O)C(C)Oc1ccccc1 (stereo not given),inactive: 4.41%
4,O=C(Nc1ccc(Cl)c(Cl)c1)Nc1nnc(CC2=CCCCC2)s1,inactive: 1.76%
5,COc1ccc(S(=O)(=O)/N=C2\C=C(NS(=O)(=O)c3ccccc3)C(=O)c3ccccc32)cc1,inconclusive: 44.9%
6,CCOC(=O)c1c(-c2ccc(C)cc2)csc1NC(=O)CCN1CCOCC1,inconclusive: 37%
7,COC(=O)c1ccc(/C=C/c2ccc3cccc(OC)c3n2)cc1,inconclusive: 43.9%
8,Cc1cc(Br)ccc1NC(=O)c1cnc(N2CCN(c3ccccn3)CC2)c2ccccc12,inconclusive: 32.5%
9,O=C(NCc1ccc2c(c1)OCO2)C(=O)NCC1OCCN1S(=O)(=O)c1ccc(Br)cc1 (stereo not given),inconclusive: 43.7%
10,COc1cccc(/C=N/NC(=O)CSc2ccccc2C)c1O,inconclusive: 47.7%
11,O=c1nc2n(c3ccc(Br)cc13)CCS2,inconclusive: 15.8%
12,COc1ccccc1N(CC(=O)Nc1cccc(C(F)(F)F)c1)S(C)(=O)=O,inconclusive: 19.8%
13,COc1ccc(NC(=O)NCCCCc2ccccc2)c(OC)c1,inconclusive: 42.8%
14,O=C(OCc1ccc(COC(=O)c2ccc(O)cc2)cc1)c1ccc(O)cc1,active: 57.7%
15,CSc1ccc(Cl)c(C(=O)OCC(=O)N(C)CCC#N)c1,inactive: -7.23%
16,O=C1c2ccccc2CCC12N=NCC2c1ccc(Br)cc1 (stereo not given),inconclusive: 36.4%
17,CCCc1ccc(Oc2c(-c3ccc(O)c(C)c3O)n[nH]c2C)cc1,active: 95.3%
18,O=C(CNS(=O)(=O)c1ccccc1)NCc1ccco1,inactive: 1.54%
19,CCc1nnc2n1N=C(c1ccc(OC)cc1)CS2,inactive: 7.76%
20,Cc1[nH]n(-c2nc(-c3ccc(Cl)cc3)cs2)c(=O)c1N=Nc1ccc(O)cc1,active: 60.8%
21,O=C(NC(=S)NNC(=O)c1cccs1)c1ccccc1,active: 86.4%
22,COc1ccccc1C(=O)Nc1nnc(-c2ccc3c(c2)CCCC3)o1,active: 58.4%
23,N#C/C(=C/c1cn(-c2ccccc2)nc1-c1cccc(OCc2ccc(F)cc2)c1)C(=O)NCCCn1ccnc1,inconclusive: 45.2%

row,Structure (SMILES),inhibition
1,COc1cccc(/C=N/NC(=S)NC2CC3CC2C2C=CCC32)c1O (stereo not given),active: 109%
2,CCOc1ncccc1C(=O)NNC(=O)c1cccc(S(=O)(=O)Nc2ccc(OC)cc2)c1,inconclusive: 38.4%
3,COc1ccccc1NC(=O)c1sc2ncn(Cc3ccc(C)cc3)c(=O)c2c1C,inactive: 10%
4,CCCC(O)(c1ccc(Br)cc1)C(CN1CCOCC1)c1ccc(Cl)cc1 (stereo not given),inconclusive: 45.3%
5,O=C(/C=C/c1cccs1)NC(=S)Nc1ccc(S(=O)(=O)Nc2ccccc2C(F)(F)F)cc1,active: 59.3%
6,O=C(Cc1ccc([N+](=O)[O-])cc1)N/N=C/c1ccc([N+](=O)[O-])o1,inconclusive: 25.5%
7,CSc1nc(Oc2ccc3ccccc3c2)c2sccc2n1,active: 54.4%
8,COc1ccc2oc(C(=O)Nc3nc4ccccc4[nH]3)c(C)c2c1,active: 78%
9,COc1ccccc1N1CC(C(=O)Nc2nnc(SCC(=O)NCC3CCCO3)s2)CC1=O (stereo not given),inconclusive: 37.4%
10,CC1CN(C(=O)CCC(=O)NCc2ccccn2)c2ccccc2O1 (stereo not given),inactive: 0.223%
11,FC(F)(F)c1cc(CCN2CCNC[C@H]2Cc2cccc3ccccc23)cc(C(F)(F)F)c1,active: 69.8%
12,O=Cc1ccccc1Oc1nc(N2CCOCC2)nc(N2CCOCC2)n1,inactive: -0.678%
13,Cc1ccn2c(NC3CCCC3)c(-c3ccccn3)nc2c1,active: 90.6%
14,O=C(c1ccc(Br)s1)N1CCN(c2ccccn2)CC1,inactive: 7.5%
15,CCOC(=O)C1=C(CC)Nc2ccccc2N=C1NC(=O)c1oc2ccccc2c1C,inconclusive: 21.3%
16,O=c1c([N+](=O)[O-])cccn1Cc1ccc(F)cc1Cl,active: 55.4%
17,CCOc1ccc(CNc2ncc(-c3ccccc3)n2C)cc1,inactive: 2.88%
18,Cc1ccc(O)c(/C=N/NC(=O)Cc2ccc(Cl)cc2)c1,active: 97.1%
19,COc1ccc(CCNC(=O)CSc2nncn2N)cc1OC,inconclusive: 32.6%
20,Cc1nc(N2CCN(Cc3ccc4c(c3)OCO4)CC2)c2cc(-c3ccccc3)sc2n1,inconclusive: 49.2%
21,CCn1cc(C(=O)OCC(=O)Nc2ccc(S(=O)(=O)N3CCCC3)cc2)c(=O)c2ccc(C)nc21,inconclusive: 34.4%
